US20260102413A1, “TREATING PAIN ASSOCIATED WITH CENTRAL SENSITIZATION” (Medicon Pharmaceuticals, Inc., priority 2022, published 2026)
Some results were stated once for a whole list of compounds, not compound by compound. At least one compound was matched to its structure with a doubt left.

Type: in vivo, mouse
Settings: topical PS 8% ointment, hind paws, normal mice
Protocol: At 0.5, 1, 3, 5, 12, 18, and 24 h, mice (n=4-5 mice/time point) were euthanized with CO2 inhalation. Blood was drawn immediately after death. Tissues, including paw skin, paw muscle, leg muscle, the sciatic nerve and lumbar DRG bilaterally were dissected quickly, immediately frozen in liquid nitrogen and stored at −80° C. until analyzed.

Compound | metabolite levels as % of those of sulindac [%]
CSc1ccc(/C=C2/C(C)=C(CC(=O)O)c3cc(F)ccc32)cc1 [sulindac sulfide] | < 20
CC1=C(CC(=O)O)c2cc(F)ccc2/C1=C\c1ccc(S(C)(=O)=O)cc1 [sulindac sulfone] | < 20
